Assay results published in the supplement of paper PMC10849652.
The other results are listed elsewhere or left out.

Protein sequences, listed by entry. Tags and fused reporters are not part of them. Lines headed by an entry give the natural chain unless they say otherwise; changes in a name come on top.
UniProt Q86VD7: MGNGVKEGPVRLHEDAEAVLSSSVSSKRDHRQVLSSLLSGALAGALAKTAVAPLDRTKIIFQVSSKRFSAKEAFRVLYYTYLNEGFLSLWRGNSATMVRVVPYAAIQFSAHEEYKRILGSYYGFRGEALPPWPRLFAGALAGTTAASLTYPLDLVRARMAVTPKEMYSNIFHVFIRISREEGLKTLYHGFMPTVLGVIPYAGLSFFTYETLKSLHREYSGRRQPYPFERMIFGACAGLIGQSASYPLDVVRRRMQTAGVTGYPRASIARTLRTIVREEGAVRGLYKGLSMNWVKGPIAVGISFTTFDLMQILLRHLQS
UniProt P50443: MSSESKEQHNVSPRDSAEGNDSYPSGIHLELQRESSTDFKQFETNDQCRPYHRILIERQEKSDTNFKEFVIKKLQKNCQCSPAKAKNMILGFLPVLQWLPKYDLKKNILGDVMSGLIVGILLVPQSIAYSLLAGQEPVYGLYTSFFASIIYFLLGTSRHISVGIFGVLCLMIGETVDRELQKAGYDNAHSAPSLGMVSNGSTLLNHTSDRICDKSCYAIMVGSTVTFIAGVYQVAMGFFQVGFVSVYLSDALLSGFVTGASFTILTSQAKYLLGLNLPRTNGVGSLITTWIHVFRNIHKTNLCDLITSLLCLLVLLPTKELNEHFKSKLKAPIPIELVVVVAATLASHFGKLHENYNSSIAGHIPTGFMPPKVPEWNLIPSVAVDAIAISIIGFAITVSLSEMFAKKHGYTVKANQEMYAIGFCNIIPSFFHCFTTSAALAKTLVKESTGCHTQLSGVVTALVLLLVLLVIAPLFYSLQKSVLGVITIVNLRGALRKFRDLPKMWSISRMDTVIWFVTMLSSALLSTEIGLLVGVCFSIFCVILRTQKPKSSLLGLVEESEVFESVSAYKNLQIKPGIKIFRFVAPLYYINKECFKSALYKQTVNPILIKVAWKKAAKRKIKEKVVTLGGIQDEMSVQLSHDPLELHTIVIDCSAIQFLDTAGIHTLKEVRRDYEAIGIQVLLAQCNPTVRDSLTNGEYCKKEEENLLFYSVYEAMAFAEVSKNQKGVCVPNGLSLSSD
UniProt Q9BSK2: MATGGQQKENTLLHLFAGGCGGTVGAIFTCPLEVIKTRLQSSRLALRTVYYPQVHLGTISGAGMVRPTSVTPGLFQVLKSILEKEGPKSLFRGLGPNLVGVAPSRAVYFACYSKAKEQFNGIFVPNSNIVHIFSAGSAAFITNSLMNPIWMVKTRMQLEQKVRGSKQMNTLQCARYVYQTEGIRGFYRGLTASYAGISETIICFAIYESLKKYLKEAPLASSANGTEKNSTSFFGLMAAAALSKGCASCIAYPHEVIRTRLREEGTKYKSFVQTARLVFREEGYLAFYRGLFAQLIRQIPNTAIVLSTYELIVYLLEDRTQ
UniProt Q9HAB3: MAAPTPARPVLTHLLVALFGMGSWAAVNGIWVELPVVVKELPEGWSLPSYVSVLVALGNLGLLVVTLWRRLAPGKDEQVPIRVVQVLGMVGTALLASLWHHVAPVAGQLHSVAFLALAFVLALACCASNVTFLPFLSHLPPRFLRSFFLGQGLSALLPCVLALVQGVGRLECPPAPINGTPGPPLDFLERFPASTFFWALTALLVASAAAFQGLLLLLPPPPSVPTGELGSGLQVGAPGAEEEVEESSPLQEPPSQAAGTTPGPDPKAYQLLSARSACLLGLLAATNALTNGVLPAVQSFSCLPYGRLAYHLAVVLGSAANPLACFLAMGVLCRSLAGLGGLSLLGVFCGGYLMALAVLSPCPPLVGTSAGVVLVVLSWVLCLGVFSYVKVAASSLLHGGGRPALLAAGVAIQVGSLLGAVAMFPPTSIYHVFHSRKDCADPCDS
UniProt Q9NY26: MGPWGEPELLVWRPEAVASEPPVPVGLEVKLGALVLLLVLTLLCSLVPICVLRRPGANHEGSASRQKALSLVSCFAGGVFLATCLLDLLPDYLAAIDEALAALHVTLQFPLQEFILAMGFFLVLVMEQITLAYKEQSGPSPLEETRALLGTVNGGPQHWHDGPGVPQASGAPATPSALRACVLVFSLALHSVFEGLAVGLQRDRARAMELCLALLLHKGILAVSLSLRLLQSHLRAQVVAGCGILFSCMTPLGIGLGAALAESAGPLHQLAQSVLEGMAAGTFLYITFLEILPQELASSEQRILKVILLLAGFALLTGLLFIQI
UniProt Q92504: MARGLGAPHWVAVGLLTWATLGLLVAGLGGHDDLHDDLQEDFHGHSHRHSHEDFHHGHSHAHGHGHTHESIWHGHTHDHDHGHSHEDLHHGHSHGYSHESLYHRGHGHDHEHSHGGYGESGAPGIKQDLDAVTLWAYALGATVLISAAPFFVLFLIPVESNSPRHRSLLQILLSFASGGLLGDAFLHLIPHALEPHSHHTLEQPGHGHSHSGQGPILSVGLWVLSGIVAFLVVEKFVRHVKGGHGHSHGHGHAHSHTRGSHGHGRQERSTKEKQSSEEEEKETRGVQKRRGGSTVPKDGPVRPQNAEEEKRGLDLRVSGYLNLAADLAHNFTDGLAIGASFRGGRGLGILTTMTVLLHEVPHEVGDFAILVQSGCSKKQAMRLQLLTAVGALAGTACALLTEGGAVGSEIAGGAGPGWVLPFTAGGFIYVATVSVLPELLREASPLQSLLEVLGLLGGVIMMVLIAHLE
UniProt Q96K37: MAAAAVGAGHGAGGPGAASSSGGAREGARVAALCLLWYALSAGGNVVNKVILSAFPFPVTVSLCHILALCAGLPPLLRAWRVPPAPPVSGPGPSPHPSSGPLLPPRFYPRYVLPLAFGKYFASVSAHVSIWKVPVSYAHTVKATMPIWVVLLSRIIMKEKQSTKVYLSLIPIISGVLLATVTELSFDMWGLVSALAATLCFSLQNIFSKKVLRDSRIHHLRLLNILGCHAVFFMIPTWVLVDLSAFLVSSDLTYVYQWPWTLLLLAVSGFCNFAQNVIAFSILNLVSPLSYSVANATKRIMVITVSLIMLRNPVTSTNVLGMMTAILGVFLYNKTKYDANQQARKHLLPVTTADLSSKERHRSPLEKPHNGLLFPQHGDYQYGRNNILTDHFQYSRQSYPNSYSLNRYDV
UniProt F5GZS6: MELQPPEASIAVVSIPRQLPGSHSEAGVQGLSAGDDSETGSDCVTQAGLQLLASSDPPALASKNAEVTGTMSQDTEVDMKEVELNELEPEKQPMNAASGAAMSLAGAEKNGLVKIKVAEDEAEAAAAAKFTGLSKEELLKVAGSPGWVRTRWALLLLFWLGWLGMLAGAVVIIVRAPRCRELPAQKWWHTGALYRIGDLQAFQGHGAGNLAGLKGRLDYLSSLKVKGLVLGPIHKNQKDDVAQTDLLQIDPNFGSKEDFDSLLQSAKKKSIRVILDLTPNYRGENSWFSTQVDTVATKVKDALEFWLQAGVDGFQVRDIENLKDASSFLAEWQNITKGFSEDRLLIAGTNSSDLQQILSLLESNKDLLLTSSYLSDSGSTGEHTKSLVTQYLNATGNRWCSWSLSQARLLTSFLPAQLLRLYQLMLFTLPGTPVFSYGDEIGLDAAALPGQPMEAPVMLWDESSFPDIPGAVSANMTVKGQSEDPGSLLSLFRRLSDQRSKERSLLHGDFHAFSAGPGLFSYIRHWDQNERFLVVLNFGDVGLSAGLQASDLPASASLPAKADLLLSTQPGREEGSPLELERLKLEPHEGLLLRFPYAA
UniProt Q6ZP29: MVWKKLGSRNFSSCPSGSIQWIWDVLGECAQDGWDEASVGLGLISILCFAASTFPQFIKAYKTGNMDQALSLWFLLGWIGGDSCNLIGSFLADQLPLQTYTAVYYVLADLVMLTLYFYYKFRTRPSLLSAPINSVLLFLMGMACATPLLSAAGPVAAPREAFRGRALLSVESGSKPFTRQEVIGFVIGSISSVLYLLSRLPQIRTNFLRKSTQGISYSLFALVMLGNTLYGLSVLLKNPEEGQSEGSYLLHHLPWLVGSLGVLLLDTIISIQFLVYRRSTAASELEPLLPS
UniProt P53794: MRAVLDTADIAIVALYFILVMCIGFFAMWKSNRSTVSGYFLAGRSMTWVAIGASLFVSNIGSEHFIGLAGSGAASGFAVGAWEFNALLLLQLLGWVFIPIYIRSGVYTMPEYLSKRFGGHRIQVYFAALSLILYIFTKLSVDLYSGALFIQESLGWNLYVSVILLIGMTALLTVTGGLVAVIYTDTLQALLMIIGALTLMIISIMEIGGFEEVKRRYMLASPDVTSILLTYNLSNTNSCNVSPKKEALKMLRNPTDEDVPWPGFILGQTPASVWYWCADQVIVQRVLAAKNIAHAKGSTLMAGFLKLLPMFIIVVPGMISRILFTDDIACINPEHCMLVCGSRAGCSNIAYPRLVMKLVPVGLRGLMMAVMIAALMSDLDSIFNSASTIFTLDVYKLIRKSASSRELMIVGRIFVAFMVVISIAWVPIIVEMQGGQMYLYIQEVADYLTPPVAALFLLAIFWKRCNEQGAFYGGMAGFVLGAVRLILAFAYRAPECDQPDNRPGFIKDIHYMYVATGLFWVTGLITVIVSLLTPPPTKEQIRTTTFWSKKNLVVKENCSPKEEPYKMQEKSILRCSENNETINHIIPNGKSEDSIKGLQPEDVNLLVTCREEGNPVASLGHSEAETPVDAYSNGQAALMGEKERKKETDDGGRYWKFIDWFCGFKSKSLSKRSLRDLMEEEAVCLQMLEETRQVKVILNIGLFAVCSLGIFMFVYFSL
UniProt Q8NEW0: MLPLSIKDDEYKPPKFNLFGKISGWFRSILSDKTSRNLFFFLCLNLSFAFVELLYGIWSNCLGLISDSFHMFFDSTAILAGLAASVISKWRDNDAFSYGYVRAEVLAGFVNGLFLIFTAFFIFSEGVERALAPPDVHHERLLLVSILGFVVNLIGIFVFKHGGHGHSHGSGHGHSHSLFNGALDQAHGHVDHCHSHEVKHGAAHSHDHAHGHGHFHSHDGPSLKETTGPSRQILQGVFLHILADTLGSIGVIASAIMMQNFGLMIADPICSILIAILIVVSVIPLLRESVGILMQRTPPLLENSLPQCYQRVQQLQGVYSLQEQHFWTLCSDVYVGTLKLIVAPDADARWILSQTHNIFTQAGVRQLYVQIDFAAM
UniProt Q02978: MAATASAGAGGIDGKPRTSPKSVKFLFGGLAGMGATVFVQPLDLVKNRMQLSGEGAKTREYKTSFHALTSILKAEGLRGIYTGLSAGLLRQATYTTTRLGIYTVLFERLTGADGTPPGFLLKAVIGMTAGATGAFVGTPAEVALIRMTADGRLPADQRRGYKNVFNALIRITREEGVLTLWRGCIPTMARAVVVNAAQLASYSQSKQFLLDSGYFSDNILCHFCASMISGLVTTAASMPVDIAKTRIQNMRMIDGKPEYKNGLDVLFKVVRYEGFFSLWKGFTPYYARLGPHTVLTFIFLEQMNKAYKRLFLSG
UniProt Q8N2U9: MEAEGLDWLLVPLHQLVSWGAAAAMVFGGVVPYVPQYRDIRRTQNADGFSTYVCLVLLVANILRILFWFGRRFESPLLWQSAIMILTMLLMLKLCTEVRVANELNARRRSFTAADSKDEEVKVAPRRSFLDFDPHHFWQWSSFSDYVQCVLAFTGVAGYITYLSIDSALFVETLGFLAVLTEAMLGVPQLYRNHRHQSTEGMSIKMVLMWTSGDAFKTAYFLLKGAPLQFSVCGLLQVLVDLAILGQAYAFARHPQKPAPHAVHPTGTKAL
UniProt P14672: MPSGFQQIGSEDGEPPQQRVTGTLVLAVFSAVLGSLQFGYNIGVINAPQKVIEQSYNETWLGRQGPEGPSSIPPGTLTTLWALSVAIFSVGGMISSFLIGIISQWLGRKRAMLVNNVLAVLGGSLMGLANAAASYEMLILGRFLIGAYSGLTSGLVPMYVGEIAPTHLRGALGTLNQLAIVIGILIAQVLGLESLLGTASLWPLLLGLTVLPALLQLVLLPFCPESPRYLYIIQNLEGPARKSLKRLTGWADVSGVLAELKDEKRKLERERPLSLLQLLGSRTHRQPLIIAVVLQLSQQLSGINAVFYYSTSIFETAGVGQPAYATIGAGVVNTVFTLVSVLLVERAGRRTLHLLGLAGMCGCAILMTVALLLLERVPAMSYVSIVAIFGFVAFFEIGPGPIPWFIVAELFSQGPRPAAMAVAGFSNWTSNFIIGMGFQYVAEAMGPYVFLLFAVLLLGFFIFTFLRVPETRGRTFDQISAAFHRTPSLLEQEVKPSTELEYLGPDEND
UniProt Q9H0C2: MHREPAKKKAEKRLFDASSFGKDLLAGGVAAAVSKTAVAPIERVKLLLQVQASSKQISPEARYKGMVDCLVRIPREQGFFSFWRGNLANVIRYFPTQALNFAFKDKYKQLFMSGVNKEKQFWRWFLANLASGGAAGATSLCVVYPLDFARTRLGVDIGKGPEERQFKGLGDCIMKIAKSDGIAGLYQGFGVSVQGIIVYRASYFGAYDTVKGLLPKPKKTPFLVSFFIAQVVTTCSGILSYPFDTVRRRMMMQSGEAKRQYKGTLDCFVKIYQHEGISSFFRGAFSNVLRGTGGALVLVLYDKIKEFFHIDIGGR

How the values were obtained:
Test in all cases: log2 fold change, soluble protein after heating vs DMSO (PISA); higher = thermal stabilisation; K562 lysate, 10 uM; active = over 0.2 and 3.5 SD of the protein, either way, in both replicates (recomputed)
ibrutinib = compound: C=CC(=O)N1CCC[C@@H](n2nc(-c3ccc(Oc4ccccc4)cc3)c3c(N)ncnc32)C1 [ibrutinib]
How it was run: (§1)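 Dounce homogenisation of K562 pellets in PBS pH 7.4 with 1 mM MgCl2 produced a crude extract, used at 1 mg/mL protein. Exposure to 10 μM compound lasted 30 min, and aliquots were then heated for 3 min across 48°C-58°C, pooled and brought to 0.5% NP-40 at 4°C. The supernatant after 21,000xg for 90 min was quantified by TMTpro 16plex LC-MS/MS with channel sums equalised. Duplicate values are given as log-two fold change in thermal stability relative to solvent controls.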

[1] = compound: CC(=O)c1cnc2ccc(-c3cc(Cl)c(O)c(Cl)c3)nc2c1N[C@H]1CC[C@H](CN(C)C)CC1
How it was run: as §1

ralimetinib = compound: CC(C)(C)Cn1c(N)nc2ccc(-c3[nH]c(C(C)(C)C)nc3-c3ccc(F)cc3)nc21 [ralimetinib]
How it was run: as §1

[2] = compound: CC(C)(O)CC(=O)NCCn1ccc2ncnc(Nc3ccc(Oc4cccc(C(F)(F)F)c4)c(Cl)c3)c21
How it was run: as §1

[3] = compound: CC(C)C1=C2N=C(C=C(N2N=C1)NCC3=CC=CC=C3)NCCCCCCN
How it was run: as §1

[4] = compound: CC1=C(C(CC(=O)N1)C2=CC=C(C=C2)C(F)(F)F)C(=O)NC3=C(C=C4C(=C3)C=NN4)F
How it was run: as §1

[5] = compound: CC1=C(C2=C(C=C1)C(=O)C3=CC=CC=C3N2CCCN)C
How it was run: as §1

[6] = compound: CC1=C(C=C(C=C1)NC(=O)C2=CC(=CC=C2)C(C)(C)C#N)NC3=CC4=C(C=C3)N=CN(C4=O)C
How it was run: as §1

[7] = compound: CC1=C(C=C(C=C1)NC(=O)C2=CC(=CC=C2)N(C)C)NC(=O)C3=CC=C(C=C3)O
How it was run: as §1

[8] = compound: CC1=CC=C(C=C1)SC2=C3C=C(SC3=CN=C2)C(=O)N
How it was run: as §1

vemurafenib = compound: CCCS(=O)(=O)Nc1ccc(F)c(C(=O)c2c[nH]c3ncc(-c4ccc(Cl)cc4)cc23)c1F [vemurafenib]
How it was run: as §1

[9] = compound: CCCS(=O)(=O)Nc1ccc(F)c(C(=O)c2c[nH]c3ncc(Cl)cc23)c1F
How it was run: as §1

barasertib = compound: CCN(CCCOc1ccc2c(Nc3cc(CC(=O)Nc4cccc(F)c4)[nH]n3)ncnc2c1)CCOP(=O)(O)O [barasertib]
How it was run: as §1

[10] = compound: CC[C@@H]1C(=O)N(C)c2cnc(Nc3ccc(C(=O)NC4CCN(C)CC4)cc3OC)nc2N1C1CCCC1
How it was run: as §1

volasertib = compound: CC[C@@H]1C(=O)N(C)c2cnc(Nc3ccc(C(=O)N[C@H]4CC[C@H](N5CCN(CC6CC6)CC5)CC4)cc3OC)nc2N1C(C)C [volasertib]
How it was run: as §1

[11] = compound: CCn1c(C(=O)N(C2CC2)C2CC2)cc2c3c(ncn3C)c(Nc3cc(C)n(C)n3)nc21
How it was run: as §1

[12] = compound: CCn1cc(-c2ccnc3[nH]c(-c4cccc(CN(C)C)c4)cc23)c(-c2ccc(NC(=O)N(C)C)cc2)n1
How it was run: as §1

[13] = compound: CN1CCC(CNc2ccc3ncc(-c4cccc(OC(F)(F)F)c4)n3n2)CC1
How it was run: as §1

saracatinib = compound: CN1CCN(CCOc2cc(OC3CCOCC3)c3c(Nc4c(Cl)ccc5c4OCO5)ncnc3c2)CC1 [saracatinib]
How it was run: as §1

sotrastaurin = compound: CN1CCN(c2nc(C3=C(c4c[nH]c5ccccc45)C(=O)NC3=O)c3ccccc3n2)CC1 [sotrastaurin]
How it was run: as §1

Measured: log2 fold change

SLC25A42 (UniProt Q86VD7)
inactive: ibrutinib -0.094 | [1] 0.049 | ralimetinib 0.018 | [2] -0.027 | [3] 0.055 | [4] -0.017 | [5] -0.046 | [6] -0.003 | [7] 0.073 | [8] 0.01 | vemurafenib -0.072 | [9] 0.005 | barasertib 0.02 | [10] -0.013 | volasertib -0.024 | [11] -0.104 | [12] -0.014 | [13] -0.092 | saracatinib -0.12 | sotrastaurin -0.019

SLC7A5 (UniProt Q01650)
active: [12] -0.312
inactive: ibrutinib -0.011 | [1] -0.01 | ralimetinib 0.018 | [2] -0.042 | [3] 0.036 | [4] -0.031 | [5] -0.003 | [6] 0.075 | [7] -0.043 | [8] 0 | vemurafenib -0.027 | [9] -0.017 | barasertib -0.038 | [10] -0.031 | volasertib 0.06 | [11] -0.001 | [13] 0.183 | saracatinib 0.056 | sotrastaurin 0.046

SLC26A2 (UniProt P50443)
inactive: ibrutinib -0.284 | [1] -0.041 | ralimetinib 0.033 | [2] -0.1 | [3] -0.02 | [5] 0.028 | [6] 0.017 | [7] 0.102 | [8] -0.01 | vemurafenib -0.002 | [9] 0.042 | barasertib -0.026 | [10] 0.002 | volasertib 0.051 | [11] 0.135 | [12] -0.101 | [13] -0.023 | saracatinib 0.024 | sotrastaurin 0.032

SLC25A33 (UniProt Q9BSK2)
inactive: ibrutinib 0.044 | [1] -0.031 | ralimetinib 0.041 | [2] -0.026 | [3] 0.01 | [4] 0.038 | [5] 0.081 | [6] 0.042 | [7] -0.022 | [8] 0.004 | vemurafenib -0.034 | [9] -0.011 | barasertib -0.06 | [10] -0.003 | volasertib 0.025 | [11] -0.063 | [12] -0.072 | [13] 0.045 | saracatinib 0.003 | sotrastaurin 0.036

SLC52A2 (UniProt Q9HAB3)
inactive: ibrutinib 0.063 | [1] -0.053 | ralimetinib -0.023 | [2] -0.057 | [3] 0.014 | [5] -0.05 | [6] 0.016 | [7] -0.077 | [8] -0.168 | vemurafenib -0.102 | [9] -0.095 | barasertib 0.038 | [10] -0.099 | volasertib -0.119 | [11] 0.022 | [12] -0.144 | [13] 0.017 | saracatinib 0.031 | sotrastaurin 0.009

SLC39A1 (UniProt Q9NY26)
inactive: ibrutinib -0.031 | [1] 0.169 | ralimetinib -0.007 | [2] 0.011 | [3] 0 | [5] 0.044 | [6] -0.026 | [7] 0.116 | [8] -0.103 | [9] -0.012 | barasertib 0.212 | volasertib 0.069 | [11] 0.03 | [12] -0.323 | [13] 0.372 | saracatinib 0.02 | sotrastaurin 0.036

SLC39A7 (UniProt Q92504)
inactive: ibrutinib 0.022 | [1] -0.039 | ralimetinib 0.046 | [2] -0.086 | [3] 0.034 | [4] -0.009 | [6] 0.031 | [7] -0.006 | [8] -0.052 | vemurafenib 0.094 | [9] 0.039 | barasertib -0.012 | [10] 0.071 | volasertib 0.008 | [11] 0.023 | [12] -0.049 | [13] 0.092 | sotrastaurin 0.029

SLC35E1 (UniProt Q96K37)
inactive: ibrutinib 0.011 | [1] 0.04 | ralimetinib 0.051 | [2] -0.014 | [3] 0.053 | [5] 0.006 | [6] 0.064 | [7] -0.021 | [8] -0.03 | vemurafenib -0.031 | [9] 0.018 | barasertib -0.006 | [10] 0.039 | volasertib 0.019 | [11] -0.009 | [12] -0.002 | [13] -0.013 | saracatinib -0.017 | sotrastaurin 0.004

Fetched one by one from above, two records:
SLC39A1 (UniProt Q9NY26)
inactive: ibrutinib -0.031 | [1] 0.169 | ralimetinib -0.007 | [2] 0.011 | [3] 0 | [5] 0.044 | [6] -0.026 | [7] 0.116 | [8] -0.103 | [9] -0.012 | barasertib 0.212 | volasertib 0.069 | [11] 0.03 | [12] -0.323 | [13] 0.372 | saracatinib 0.02 | sotrastaurin 0.036

SLC25A33 (UniProt Q9BSK2)
inactive: ibrutinib 0.044 | [1] -0.031 | ralimetinib 0.041 | [2] -0.026 | [3] 0.01 | [4] 0.038 | [5] 0.081 | [6] 0.042 | [7] -0.022 | [8] 0.004 | vemurafenib -0.034 | [9] -0.011 | barasertib -0.06 | [10] -0.003 | volasertib 0.025 | [11] -0.063 | [12] -0.072 | [13] 0.045 | saracatinib 0.003 | sotrastaurin 0.036

Going on with the list.

SLC3A2 (UniProt F5GZS6)
inactive: ibrutinib -0.111 | [1] 0.089 | ralimetinib 0.014 | [2] -0.158 | [3] 0.079 | [4] -0.115 | [5] -0.067 | [7] 0.155 | [8] -0.107 | [9] 0.046 | barasertib -0.053 | [10] 0.204 | volasertib 0.068 | [11] 0.07 | [12] -0.052 | [13] 0.089 | saracatinib 0.015

SLC66A1 (UniProt Q6ZP29)
inactive: ibrutinib 0.231 | [1] 0.122 | ralimetinib -0.117 | [2] -0.075 | [3] -0.012 | [4] 0.016 | [6] 0.089 | [7] -0.052 | [8] 0.024 | [9] 0.048 | barasertib 0.047 | volasertib -0.133 | [11] 0 | [12] 0.054 | [13] -0.021 | sotrastaurin -0.004

SLC5A3 (UniProt P53794)
inactive: ibrutinib -0.047 | [1] -0.023 | ralimetinib 0 | [2] -0.096 | [3] 0.056 | [4] -0.027 | [5] -0.012 | [6] 0.038 | [7] -0.04 | [8] -0.021 | vemurafenib 0.029 | [9] -0.035 | barasertib -0.063 | [10] 0.023 | volasertib 0.045 | [11] 0.013 | [12] 0.168 | [13] -0.022 | saracatinib 0.017 | sotrastaurin 0.02

SLC35B4 (UniProt Q969S0)
inactive: ibrutinib 0.051 | [1] 0.065 | ralimetinib -0.033 | [2] -0.102 | [3] 0.009 | [4] -0.004 | [6] 0.139 | [7] 0.005 | [8] 0.047 | vemurafenib 0.05 | [9] 0.035 | barasertib 0.046 | [10] 0.067 | volasertib 0.035 | [11] -0.053 | [12] -0.171 | [13] 0.152 | sotrastaurin 0.091

SLC30A7 (UniProt Q8NEW0)
inactive: ibrutinib -0.106 | [1] 0.018 | ralimetinib -0.049 | [2] -0.012 | [4] 0.397 | [5] 0.028 | [6] 0.088 | [7] 0.009 | [8] -0.051 | vemurafenib 0.072 | [9] 0.055 | barasertib 0.095 | [10] -0.083 | volasertib 0.041 | [11] -0.078 | [12] -0.083 | [13] 0.03 | saracatinib 0.018 | sotrastaurin -0.065

SLC25A11 (UniProt Q02978)
inactive: ibrutinib 0.011 | [1] -0.02 | ralimetinib 0.036 | [2] -0.019 | [3] -0.022 | [4] 0.007 | [5] -0.028 | [6] 0.022 | [7] -0.002 | [8] 0.01 | vemurafenib -0.046 | [9] 0.001 | barasertib 0.013 | [10] 0.016 | volasertib 0.022 | [11] -0.005 | [12] -0.127 | [13] 0.014 | saracatinib -0.004 | sotrastaurin -0.006

SLC66A2 (UniProt Q8N2U9)
inactive: ibrutinib -0.119 | [1] 0.006 | ralimetinib 0.015 | [2] -0.109 | [3] -0.262 | [4] 0.038 | [5] 0.042 | [7] 0.082 | [8] -0.063 | [9] -0.013 | barasertib 0.093 | [10] -0.016 | volasertib -0.032 | [11] 0.026 | saracatinib -0.054

SLC2A4 (UniProt P14672)
inactive: ibrutinib -0.077 | [1] -0.043 | ralimetinib -0.018 | [2] 0.077 | [3] -0.182 | [5] -0.03 | [6] -0.074 | [7] 0.126 | [8] -0.01 | vemurafenib 0.056 | [9] 0.056 | barasertib -0.04 | [10] 0.003 | volasertib 0.045 | [11] -0.155 | [12] -0.04 | [13] 0.04 | saracatinib -0.028 | sotrastaurin 0.011

SLC25A31 (UniProt Q9H0C2)
inactive: ibrutinib -0.017 | [1] -0.01 | ralimetinib -0.001 | [2] -0.027 | [3] 0.035 | [4] 0.02 | [5] -0.001 | [6] -0.016 | [7] 0.016 | [8] 0.043 | vemurafenib -0.011 | [9] 0.008 | barasertib -0.001 | [10] 0.008 | volasertib 0.026 | [11] -0.018 | [12] -0.124 | [13] 0.031 | saracatinib -0.031 | sotrastaurin -0.017
